The values below come from patent US9777070B2 (Pfizer Inc., priority 2014, dated 2017).

The nature of this data set: general procedure: solution-phase peptide synthesis; HATU. Conditions: for final HPLC purity: HPLC Protocol A.

With “2-methylalanyl-N-[(3R,4S,5S)-1-{(2S)-2-[(1R,2R)-3-{[(1S)-1-carboxy-2-phenylethyl]amino}-1-methoxy-2-methyl-3-oxopropyl]pyrrolidin-1-yl}-3-methoxy-5-methyl-1-oxoheptan-4-yl]-N-methyl-L-valinamide, trifluoroacetic acid salt”, the step yield (late stage modification step, trifluoroacetic acid salt) was 52%. Consider “2-methylalanyl-N-[(3R,4S,5S)-3-methoxy-1-{(2S)-2-[(1R,2R)-1-methoxy-2-methyl-3-oxo-3-{[(1S)-2-phenyl-1-(1,3-thiazol-2-yl)ethyl]amino}propyl]pyrrolidin-1-yl}-5-methyl-1-oxoheptan-4-yl]-N-methyl-L-valinamide”, for which, where the note is “late stage modification step”, the step yield is 75% and the “final HPLC purity” value was over 97%. “N-[(9H-fluoren-9-ylmethoxy)carbonyl]-2-methylalanyl-N-[(3R,4S,5S)-3-methoxy-1-{(2S)-2-[(1R,2R)-1-methoxy-2-methyl-3-oxo-3-{[(1S)-2-phenyl-1-(1,3-thiazol-2-yl)ethyl]amino}propyl]pyrrolidin-1-yl}-5-methyl-1-oxoheptan-4-yl]-N-methyl-L-valinamide”: for the setting “coupling step”, the step yield was determined as 74% and the “final HPLC purity” value is over 97%. “N-[(9H-fluoren-9-ylmethoxy)carbonyl]-2-methylalanyl-N-[(3R,4S,5S)-3-methoxy-1-{(2S)-2-[(1R,2R)-1-methoxy-3-{[(2S)-1-methoxy-1-oxo-3-phenylpropan-2-yl]amino}-2-methyl-3-oxopropyl]pyrrolidin-1-yl}-5-methyl-1-oxoheptan-4-yl]-N-methyl-L-valinamide”: the step yield (coupling step, over two steps) was 88% over two steps.
